From article PMC12504568 come the findings set out here.

Chains of the proteins cited; added tags and fusions are not shown. Lines headed by an entry give the natural chain unless they say otherwise; changes in a name come on top.
UniProt P49588: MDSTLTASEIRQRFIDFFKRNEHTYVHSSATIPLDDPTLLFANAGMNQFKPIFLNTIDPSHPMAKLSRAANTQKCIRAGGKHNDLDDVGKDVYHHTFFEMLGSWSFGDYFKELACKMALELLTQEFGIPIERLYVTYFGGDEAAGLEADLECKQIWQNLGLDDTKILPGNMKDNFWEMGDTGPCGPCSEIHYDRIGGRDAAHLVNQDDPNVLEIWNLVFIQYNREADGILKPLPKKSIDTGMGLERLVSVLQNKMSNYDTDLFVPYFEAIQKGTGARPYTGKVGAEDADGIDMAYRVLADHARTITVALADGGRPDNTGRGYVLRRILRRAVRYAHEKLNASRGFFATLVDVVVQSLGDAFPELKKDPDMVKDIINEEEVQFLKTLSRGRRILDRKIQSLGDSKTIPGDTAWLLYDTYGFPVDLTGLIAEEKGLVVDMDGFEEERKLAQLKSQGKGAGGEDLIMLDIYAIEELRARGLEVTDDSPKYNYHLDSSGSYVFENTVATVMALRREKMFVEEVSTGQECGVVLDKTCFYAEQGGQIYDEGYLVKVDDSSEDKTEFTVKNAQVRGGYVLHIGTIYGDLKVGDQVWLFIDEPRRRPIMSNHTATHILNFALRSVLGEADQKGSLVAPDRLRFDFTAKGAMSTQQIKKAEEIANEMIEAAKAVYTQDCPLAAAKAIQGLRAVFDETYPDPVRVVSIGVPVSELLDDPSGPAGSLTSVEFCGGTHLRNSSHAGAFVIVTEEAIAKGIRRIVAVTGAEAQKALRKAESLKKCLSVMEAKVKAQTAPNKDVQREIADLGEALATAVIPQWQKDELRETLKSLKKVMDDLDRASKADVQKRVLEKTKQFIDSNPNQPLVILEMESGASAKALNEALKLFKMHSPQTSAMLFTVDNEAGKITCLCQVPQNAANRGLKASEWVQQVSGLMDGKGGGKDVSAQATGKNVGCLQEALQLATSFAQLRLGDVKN
UniProt Q13547: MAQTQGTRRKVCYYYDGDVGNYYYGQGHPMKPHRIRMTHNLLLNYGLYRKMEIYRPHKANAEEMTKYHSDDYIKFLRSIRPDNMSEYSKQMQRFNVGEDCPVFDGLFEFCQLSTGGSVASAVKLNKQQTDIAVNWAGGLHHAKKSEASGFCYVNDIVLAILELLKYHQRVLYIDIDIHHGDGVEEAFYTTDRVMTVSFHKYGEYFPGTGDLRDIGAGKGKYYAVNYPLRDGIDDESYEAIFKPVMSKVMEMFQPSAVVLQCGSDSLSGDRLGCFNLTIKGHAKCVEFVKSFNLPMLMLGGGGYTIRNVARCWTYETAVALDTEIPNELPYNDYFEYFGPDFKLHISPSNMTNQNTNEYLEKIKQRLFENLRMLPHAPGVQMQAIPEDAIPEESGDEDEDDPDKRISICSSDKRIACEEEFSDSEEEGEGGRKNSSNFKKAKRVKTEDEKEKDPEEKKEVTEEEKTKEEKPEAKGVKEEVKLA
UniProt O60488: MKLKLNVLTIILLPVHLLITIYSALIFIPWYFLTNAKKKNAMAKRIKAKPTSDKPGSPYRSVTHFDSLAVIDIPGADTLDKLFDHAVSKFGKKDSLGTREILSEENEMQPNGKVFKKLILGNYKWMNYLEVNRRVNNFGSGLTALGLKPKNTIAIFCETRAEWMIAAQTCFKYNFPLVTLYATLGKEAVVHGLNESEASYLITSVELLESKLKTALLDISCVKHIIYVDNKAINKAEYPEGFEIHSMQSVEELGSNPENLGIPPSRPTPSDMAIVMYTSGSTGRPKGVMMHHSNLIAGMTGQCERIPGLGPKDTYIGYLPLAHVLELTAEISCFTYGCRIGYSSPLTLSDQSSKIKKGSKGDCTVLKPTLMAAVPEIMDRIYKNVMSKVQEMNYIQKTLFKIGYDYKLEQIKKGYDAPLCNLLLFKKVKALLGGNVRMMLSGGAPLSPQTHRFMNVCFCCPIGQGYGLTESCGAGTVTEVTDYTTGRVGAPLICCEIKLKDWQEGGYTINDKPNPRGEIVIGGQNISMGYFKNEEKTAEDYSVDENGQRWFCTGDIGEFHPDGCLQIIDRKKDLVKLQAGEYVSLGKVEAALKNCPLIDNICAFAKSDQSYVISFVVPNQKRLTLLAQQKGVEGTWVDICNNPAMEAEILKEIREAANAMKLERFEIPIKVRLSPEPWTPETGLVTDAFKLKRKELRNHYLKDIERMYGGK
UniProt P61956: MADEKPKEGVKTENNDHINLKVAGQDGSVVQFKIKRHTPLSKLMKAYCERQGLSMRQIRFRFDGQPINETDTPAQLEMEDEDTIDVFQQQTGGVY

These are yes or no findings as the source states them, for the method shown. In cells and extracts the contact can be indirect. For some assays here: A result given as binding can be weak or reduced; the word gives no strength.

The target in experiment [1] is AARS1 (human (endogenous in LUAD cells)) (UniProt P49588). The experiment is described as follows: co-IP; endogenous proteins, LUAD cell lysate, precipitated with AARS1 antibody or HDAC1 antibody crosslinked to Protein A/G magnetic beads, overnight 4 °C.
Experiment [2] has as its target HDAC1 (human (endogenous in LUAD cells)) (UniProt Q13547). The experiment is described as above.
Experiment [3] deals with ACSL4 (human (endogenous in A549 and PC9)) (UniProt O60488). Briefly: proximity ligation; Duolink In Situ PLA on fixed, permeabilised LUAD cells (control and SUMO2-K11R knock-in); rabbit anti-SUMO2 and mouse anti-ACSL4; confocal microscopy.
For experiment [4], the target named is SUMO2 (human (endogenous in A549 and PC9)) (UniProt P61956). Briefly: co-IP; endogenous proteins, cell lysate in NP-40 lysis buffer, antibody crosslinked (DSS) to Protein A/G magnetic beads, overnight 4 °C; precipitating antibody of Fig. 6c not told; also after FINs (Fig. 6o: more SUMO2-AARS1, less SUMO2-HDAC1).
Another experiment concerns the target HA-AARS1 (UniProt P49588). Briefly: co-IP; HA-AARS1 and His-SUMO2 constructs transfected into HEK293T cells; complexes precipitated with anti-HA antibody.
The target of a further experiment is HA-AARS1 (K823A) (UniProt P49588). The experiment is described as above.

With SUMO2 (from UniProt P61956), the binding entry in experiment [1], in experiment [2] and in experiment [3] was “binds” in each case.

Take SUMO2-K11R (from UniProt P61956): the binding entry in experiment [3] is given as “binds”.

With “HDAC1 (from UniProt Q13547 1-482) (enzyme)”, in experiment [4], the binding entry is listed as “binds”.

Consider His-SUMO2 (D63A) (from UniProt P61956), for which the binding result with HA-AARS1 is on record as “no binding”.

In the case of His-SUMO2 (from UniProt P61956), the binding result with HA-AARS1 (K823A) is “no binding”; with HA-AARS1, “binds”.
